Measurements as given in publication PMC12797000.
No constants are given. Whether binding was seen depends on the method and setting. In cells and extracts the contact can be indirect. Some results given as binding are weak or reduced against the parent protein; the word gives no strength. Where a sequence is shown, tags or fusion partners need not be part of it.

Amino acid sequences for entries named in this document (tags omitted).
UniProt P23594: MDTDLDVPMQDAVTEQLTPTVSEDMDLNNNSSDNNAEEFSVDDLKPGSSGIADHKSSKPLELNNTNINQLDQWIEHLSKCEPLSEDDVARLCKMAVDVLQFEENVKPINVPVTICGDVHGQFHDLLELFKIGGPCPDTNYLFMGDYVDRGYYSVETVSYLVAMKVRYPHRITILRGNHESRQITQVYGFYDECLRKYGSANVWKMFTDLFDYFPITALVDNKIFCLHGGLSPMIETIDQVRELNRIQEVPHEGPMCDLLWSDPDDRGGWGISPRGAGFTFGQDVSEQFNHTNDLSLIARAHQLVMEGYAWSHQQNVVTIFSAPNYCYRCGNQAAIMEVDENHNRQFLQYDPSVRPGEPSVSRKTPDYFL

Molecular target: T1, Cdc55^reg tagged with protein A (Cdc55^reg-ProtA) (yeast (Saccharomyces cerevisiae, BY4741)) (UniProt Q00362)
T1 sequence: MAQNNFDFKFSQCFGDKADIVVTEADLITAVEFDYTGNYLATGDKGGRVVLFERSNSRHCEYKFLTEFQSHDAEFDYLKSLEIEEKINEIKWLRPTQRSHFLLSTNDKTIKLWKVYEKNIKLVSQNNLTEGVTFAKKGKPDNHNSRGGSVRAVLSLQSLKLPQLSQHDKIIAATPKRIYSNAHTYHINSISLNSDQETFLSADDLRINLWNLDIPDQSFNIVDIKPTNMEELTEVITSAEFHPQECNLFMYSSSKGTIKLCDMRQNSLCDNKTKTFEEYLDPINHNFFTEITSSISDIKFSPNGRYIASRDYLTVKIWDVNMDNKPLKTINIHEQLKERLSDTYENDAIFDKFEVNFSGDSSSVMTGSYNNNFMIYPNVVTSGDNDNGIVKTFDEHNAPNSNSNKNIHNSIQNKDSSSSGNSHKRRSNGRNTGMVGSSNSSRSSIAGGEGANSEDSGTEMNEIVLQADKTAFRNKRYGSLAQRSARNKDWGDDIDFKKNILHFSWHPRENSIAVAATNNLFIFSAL
Experiment: pull-down; Cdc55^reg-ProtA from BY4741 yeast lysate on IgG beads, eluted by TEV protease; western blot; control: lysate with non-tagged Cdc55

Pph21^cat, catalytic subunit of PP2A (from UniProt P23594 1-369) (enzyme)
binding: binds
